The target in assay [1] is Bmh1-FLAG (pBMH1: Bmh1-FLAG) (S. cerevisiae) (UniProt P29311). As to the kind of experiment: co-IP.
The target of assay [2] is Bmh1/2-EGFP-6×His (S. cerevisiae) (UniProt P29311+P34730). As to the kind of experiment: pull-down.
Assay [3] addresses Bmh1-FLAG (pBMH1: Bmh1-FLAG) (S. cerevisiae) (UniProt P29311). As to the kind of experiment: co-IP. The source holds these as a separate data set.

The text below walks through data of doi:10.1101/2022.12.22.521673 (bioRxiv, 2022).

Where a chain is given by its changes, count along the chain named. Numbers in names are those of the source. Where two headings read alike, the source gives them in different places. No constants are given. Whether binding was seen depends on the method and setting. In cells and extracts the contact can be indirect. Some binding calls cover weakened binding; strength is not graded here. For some assays here: Where a sequence is shown, tags or fusion partners need not be part of it.

Consider Bmh2 (from UniProt P34730 1-273), for which the binding entry in assay [1] is “binds”.

B1: EGFP-Rim4(S367C/T368C) (protein, UniProt P38741 1-713)
chain: MKTEISTADSLRDPPSNGLKADSELVIREDIDQFLPSEVSSLGSDHQNDGEDSDTDSDNFLQDPEDDVDEESTGRGTVTTTSTSTESRGRPSSCIFVASLAAALSDDELCLSVTENFKKYGDLARVKVLRDNANRPYAFVQYNNDHDAKHALIRAQGTLLNGRRLRCEPAKVNRTLYLKNQQSIDFNEISQICEKFGGLEQIVPDRTDNQYTRRYTYPISSANSWFVQFVYRDDAIRAYANLRTDPNWIIEWAQNINVPKNYNLLHKSKFKSSKYHQNNGIINNDGSNNNDNNNSNNNNREDSRRNGDVIEEECGHVHGSDSEEKLTSDGIYDDEDKDSEITIDKRSIFVGQLDKETTREELNRRFCCHGKIQDINLIFKPTNIFAFIKYETEEAAAAALESENHAIFLNKTMHVQYKEVGGRHNRKFSGKNGGSNFNHHQFFSTRSGKTFTGPELNLAPPPINMYRKMSGGSQQESETMMPYMPMGPMPMGPPPPNAASLSDFDMFPPSYSTFMKGMMPLRRKSMPNSWSSPSSKSVNSENESVNGGDENSELPSEIPESSGRYNAANSFTTYNNSSAGNSNNNNNNNNSNSNKSQYKKRYARRSSYGYNEVPPKPYYFQPYYYHPMQYHMGPMGPLHPSQGSAGNHHPYMMVYPMSPPPPSGLDGSMIPPPINVSQSHAANHGSTHVHANEFISNDTGDINEDNKAYSLDY
On to B1, for which the binding result in assay [2] was “binds”.

B2: EGFP-Rim4(5C) (protein, UniProt P38741 1-713)
chain: B1 chain with T216C, S525C, S607C
Regarding B2, the binding entry in assay [2] is “no binding”.

B3: EGFP-Rim4(3C) (protein, UniProt P38741 1-713)
chain: B1 chain with T216C, C367S, C368T, S525C, S607C
As to B3, in assay [3], the binding entry is recorded as “binds weakly”.

B4: Bmh1 (natural protein, UniProt P29311 1-267, looked up)
chain: MSTSREDSVYLAKLAEQAERYEEMVENMKTVASSGQELSVEERNLLSVAYKNVIGARRASWRIVSSIEQKEESKEKSEHQVELICSYRSKIETELTKISDDILSVLDSHLIPSATTGESKVFYYKMKGDYHRYLAEFSSGDAREKATNASLEAYKTASEIATTELPPTHPIRLGLALNFSVFYYEIQNSPDKACHLAKQAFDDAIAELDTLSEESYKDSTLIMQLLRDNLTLWTSDMSESGQAEDQQQQQQHQQQQPPAAAEGEAPK
Regarding B4, in assay [1], the binding result is on record as “binds”.
